Results are given in words; binding and its absence hold for the method and conditions named. Binding calls can cover weak binding; strength is not graded here.
B1: 1-10E5 monoclonal antibody (antibody, V domains shown)
VH: DVKLVESGGGLVKPGGSLKLSCVVSGLTFSRYTMSWVRQTPEKRLEWVATISSGGNSTYYPDSVKGRFTISRDDAKDTLYLQMSSLKSEDTAMYYCTNYGYFFDYWGQGTTLTVSS
VL: DIQMTQSPASLSASVGETVTITCRASENIYSFLAWYQQKQGKSPQLLVYNAKTLAEGVPSRFSGSGSGTQFSLKINSLQPEDFGSYYCQHHYDRPLTFGAGTKLELK
B2: 14A7 monoclonal antibody (antibody, V domains shown)
VH: DVQLQESGPGLVKPSQSLSLTCTVTGYSITSDFAWNWIRQFPGNKLEWMGYIRFSGSTTYKPTLKSRISITRDTSKNQFFLQLNSVTTEDSATYYCAREDYDGLFDYWGQGTTLTVTS
VL: DVLMTQTPLSLPVSLGDHASISCRSSQTILHSNGNTYLDWYLQKPGQSPKLLIYKVSNRFSGVPDRFSGSGSGTDFTLKISRVEAEDLGVYYCFQGSHVPYTFGGGTKLEIK

Assays:
[1] = molecular target: His-tagged mouse Siglec15 protein (mouse); assay: ELISA, plate coated with His-tagged mouse Siglec15
[2] = molecular target: His-tagged mouse Siglec15 protein (mouse); assay: ELISA, His-tagged mouse Siglec15 coated

Binder	binding [1]	binding [2]
B1	binds	binds
B2	binds	binds

Source: patent publication US20250326838A1
